Sequences of proteins named here, by UniProt entry; tags and fusion partners are left off.
UniProt Q9SQI2: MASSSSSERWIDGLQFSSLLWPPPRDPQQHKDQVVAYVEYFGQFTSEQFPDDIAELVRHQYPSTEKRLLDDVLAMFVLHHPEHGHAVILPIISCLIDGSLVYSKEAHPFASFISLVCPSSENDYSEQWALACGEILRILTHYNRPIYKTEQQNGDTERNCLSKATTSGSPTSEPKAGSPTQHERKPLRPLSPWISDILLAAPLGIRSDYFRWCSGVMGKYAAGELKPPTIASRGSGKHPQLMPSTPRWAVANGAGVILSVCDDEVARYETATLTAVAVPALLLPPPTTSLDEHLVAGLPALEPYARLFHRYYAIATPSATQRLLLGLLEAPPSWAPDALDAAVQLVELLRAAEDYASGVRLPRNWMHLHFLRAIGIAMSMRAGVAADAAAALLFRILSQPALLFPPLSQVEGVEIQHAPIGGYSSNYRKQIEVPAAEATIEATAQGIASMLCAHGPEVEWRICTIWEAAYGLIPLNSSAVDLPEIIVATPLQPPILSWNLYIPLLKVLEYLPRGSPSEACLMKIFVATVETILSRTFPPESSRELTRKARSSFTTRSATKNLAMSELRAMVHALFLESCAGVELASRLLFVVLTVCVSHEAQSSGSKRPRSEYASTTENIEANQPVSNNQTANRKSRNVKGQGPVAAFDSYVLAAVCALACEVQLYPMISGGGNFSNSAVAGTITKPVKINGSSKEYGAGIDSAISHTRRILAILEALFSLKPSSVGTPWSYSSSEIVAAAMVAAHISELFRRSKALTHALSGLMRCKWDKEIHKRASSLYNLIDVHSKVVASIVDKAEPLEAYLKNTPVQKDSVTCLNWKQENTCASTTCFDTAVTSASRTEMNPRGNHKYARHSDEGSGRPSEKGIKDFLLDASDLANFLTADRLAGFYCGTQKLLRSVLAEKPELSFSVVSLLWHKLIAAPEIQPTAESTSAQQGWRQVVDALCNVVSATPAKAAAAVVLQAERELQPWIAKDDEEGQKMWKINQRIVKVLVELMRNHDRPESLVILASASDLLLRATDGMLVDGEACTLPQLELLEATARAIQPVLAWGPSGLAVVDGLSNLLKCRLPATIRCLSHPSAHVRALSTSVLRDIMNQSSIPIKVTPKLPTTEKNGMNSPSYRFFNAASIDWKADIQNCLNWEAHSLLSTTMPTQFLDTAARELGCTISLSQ
UniProt Q8W420: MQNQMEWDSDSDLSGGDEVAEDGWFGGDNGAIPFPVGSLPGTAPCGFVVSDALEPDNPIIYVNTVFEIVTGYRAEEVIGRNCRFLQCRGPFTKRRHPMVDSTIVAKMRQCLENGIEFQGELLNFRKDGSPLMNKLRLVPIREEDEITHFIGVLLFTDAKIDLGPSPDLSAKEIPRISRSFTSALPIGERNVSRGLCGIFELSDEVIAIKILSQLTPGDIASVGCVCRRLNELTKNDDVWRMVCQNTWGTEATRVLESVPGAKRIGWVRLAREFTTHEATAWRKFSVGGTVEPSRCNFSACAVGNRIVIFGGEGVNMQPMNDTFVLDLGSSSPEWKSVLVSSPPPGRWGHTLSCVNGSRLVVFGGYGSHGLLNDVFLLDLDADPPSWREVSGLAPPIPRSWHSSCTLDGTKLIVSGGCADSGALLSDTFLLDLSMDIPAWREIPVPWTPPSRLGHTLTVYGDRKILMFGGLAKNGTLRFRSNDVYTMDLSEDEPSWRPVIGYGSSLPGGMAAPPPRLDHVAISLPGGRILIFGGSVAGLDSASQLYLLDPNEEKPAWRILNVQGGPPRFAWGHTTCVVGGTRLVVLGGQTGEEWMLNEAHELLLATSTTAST
UniProt P28769: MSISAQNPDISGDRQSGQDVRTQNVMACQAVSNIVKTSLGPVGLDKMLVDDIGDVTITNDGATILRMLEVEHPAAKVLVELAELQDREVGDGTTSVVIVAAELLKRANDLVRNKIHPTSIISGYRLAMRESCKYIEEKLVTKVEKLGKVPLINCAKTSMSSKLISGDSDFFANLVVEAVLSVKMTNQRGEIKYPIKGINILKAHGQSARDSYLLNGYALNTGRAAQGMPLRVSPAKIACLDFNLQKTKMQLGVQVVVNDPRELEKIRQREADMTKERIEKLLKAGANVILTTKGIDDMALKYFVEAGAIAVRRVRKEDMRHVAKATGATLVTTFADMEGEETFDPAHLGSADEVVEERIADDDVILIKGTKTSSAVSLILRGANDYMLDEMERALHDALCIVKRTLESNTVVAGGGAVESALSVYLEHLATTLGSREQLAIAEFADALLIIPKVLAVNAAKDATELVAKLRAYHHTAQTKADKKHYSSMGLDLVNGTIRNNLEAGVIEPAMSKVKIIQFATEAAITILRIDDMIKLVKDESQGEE
UniProt Q9C9W9: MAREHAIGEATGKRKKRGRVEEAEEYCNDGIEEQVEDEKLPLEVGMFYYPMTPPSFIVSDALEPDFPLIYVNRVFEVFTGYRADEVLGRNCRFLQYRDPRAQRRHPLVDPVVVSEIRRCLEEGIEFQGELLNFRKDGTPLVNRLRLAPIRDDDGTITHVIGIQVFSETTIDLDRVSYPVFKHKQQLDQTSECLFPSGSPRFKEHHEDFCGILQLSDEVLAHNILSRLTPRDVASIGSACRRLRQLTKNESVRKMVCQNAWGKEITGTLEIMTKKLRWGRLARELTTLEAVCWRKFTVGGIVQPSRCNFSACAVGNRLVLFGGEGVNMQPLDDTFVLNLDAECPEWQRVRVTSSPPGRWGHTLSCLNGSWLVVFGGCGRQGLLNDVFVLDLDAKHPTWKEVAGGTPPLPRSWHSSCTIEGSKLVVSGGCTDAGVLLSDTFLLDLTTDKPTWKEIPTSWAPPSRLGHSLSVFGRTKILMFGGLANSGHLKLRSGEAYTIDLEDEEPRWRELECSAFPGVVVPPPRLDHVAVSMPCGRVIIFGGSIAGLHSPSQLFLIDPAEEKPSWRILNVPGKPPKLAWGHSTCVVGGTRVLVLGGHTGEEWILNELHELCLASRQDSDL
UniProt Q94BT6: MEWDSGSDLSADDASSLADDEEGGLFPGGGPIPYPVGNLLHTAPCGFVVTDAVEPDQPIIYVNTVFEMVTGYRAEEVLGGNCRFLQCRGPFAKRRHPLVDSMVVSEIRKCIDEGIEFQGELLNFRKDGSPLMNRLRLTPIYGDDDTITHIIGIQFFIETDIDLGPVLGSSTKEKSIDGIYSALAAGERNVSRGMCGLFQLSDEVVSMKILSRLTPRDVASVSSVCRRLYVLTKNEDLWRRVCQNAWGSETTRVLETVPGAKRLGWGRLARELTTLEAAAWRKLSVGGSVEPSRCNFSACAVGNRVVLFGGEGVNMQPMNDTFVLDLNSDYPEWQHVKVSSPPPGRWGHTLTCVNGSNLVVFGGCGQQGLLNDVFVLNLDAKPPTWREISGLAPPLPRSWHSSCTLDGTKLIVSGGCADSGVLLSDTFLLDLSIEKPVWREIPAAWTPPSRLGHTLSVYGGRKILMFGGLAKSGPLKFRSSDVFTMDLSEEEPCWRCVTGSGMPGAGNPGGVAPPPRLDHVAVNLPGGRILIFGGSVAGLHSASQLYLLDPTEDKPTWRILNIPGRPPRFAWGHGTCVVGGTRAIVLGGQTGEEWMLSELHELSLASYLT

According to doi:10.1101/162271:

How the values were obtained:
Assay in all cases: affinity purification with mass spectrometry
[1] = molecular target: 3xFlag-, 6xHis-tagged GIGANTEA protein (GI:3F6H) (Arabidopsis thaliana) (UniProt Q9SQI2)
[2] = molecular target: 3xFlag-, 6xHis-tagged GIGANTEA protein (GI:3F6H) (Arabidopsis thaliana) (UniProt Q9SQI2); remark: listed apart in the source
[3] = molecular target: 3xFlag-, 6xHis-tagged GIGANTEA protein (GI:3F6H) (Arabidopsis thaliana) (UniProt Q9SQI2); remark: listed apart in the source
[4] = molecular target: 3xFlag-, 6xHis-tagged GIGANTEA protein (GI:3F6H) (Arabidopsis thaliana) (UniProt Q9SQI2); remark: listed apart in the source
[5] = molecular target: 3xFlag-, 6xHis-tagged GIGANTEA protein (GI:3F6H) (Arabidopsis thaliana) (UniProt Q9SQI2); remark: listed apart in the source
[6] = molecular target: 3xFlag-, 6xHis-tagged GIGANTEA protein (GI:3F6H) (Arabidopsis thaliana) (UniProt Q9SQI2); remark: listed apart in the source
[7] = molecular target: 3xFlag-, 6xHis-tagged GIGANTEA protein (GI:3F6H) (Arabidopsis thaliana) (UniProt Q9SQI2); remark: listed apart in the source

LKP2 (from UniProt Q8W420 1-611) was tested. Which binding [1] did it give?
Its binding is “binds”.

And the binding [2]?
Its binding is “binds”.

What about the binding [3] of the same molecule?
Its binding is “binds”.

With “TCP-1/cpn60 chaperonin family protein At3g20050 (from UniProt P28769 1-545)” as the molecule, how does the binding [1] read?
The binding was “binds”.

And the binding [4]?
The binding was “binds”.

How did the binding [1] turn out when “FLAVIN-BINDING, KELCH REPEAT, F-BOX 1 (from UniProt Q9C9W9 1-619)” was run?
The binding was “binds”.

What about the binding [2] of the same molecule?
Its binding is “binds”.

And the binding [3]?
Its binding is “binds”.

What does the source list for ZEITLUPE (from UniProt Q94BT6 1-609)?
binding [1]: binds; binding [2]: binds; binding [3]: binds

B1: cystatin 1 (protein, UniProt Q945Q1 1-101)
chain: MADQQAGTIVGGVRDIDANANDLQVESLARFAVDEHNKNENLTLEYKRLLGAKTQVVAGTMHHLTVEVADGETNKVYEAKVLEKAWENLKQLESFNHLHDV
How did the binding [5] turn out when B1 was run?
The binding was “binds”.

What about the binding [6] of the same molecule?
Its binding is “binds”.

B2: TCP-1/cpn60 chaperonin family protein At3g03960 (protein, UniProt Q94K05 1-549)
chain: MVGMSMQPYGIQSMLKEGYRHLSGLDEAVIKNIEACKELSTITRTSLGPNGMNKMVINHLDKLFVTNDAATIVNELEIQHPAAKLLVLAAKAQQEEIGDGANLTISFAGELLQNAEELIRMGLHPSEIISGYTKAVSKAVEILEQLVETGSETMDVRNKDEVISRMRAAVASKQFGQEEIICSLVTDACIQVCPKNPTNFNVDNVRVSKLLGGGLHNSCIVRGMVLKSDAVGSIKRMEKAKVAVFAGGVDTTATETKGTVLIHSAEQLENYAKTEEAKVEELIKAVAESGAKVIVSGGSIGEMALHFCERYKIMVLKISSKFELRRFCRTAGAVAHLKLSRPSPEDLGYVDSISVEEIGGVTVTIARNEEGGNSISTVVLRGSTDSILDDLERAVDDGVNTYKAMCRDSRIVPGAAATEIELAQRLKEYANAEIGLDKYAITKYAESFEFVPKTLADNAGLNAMEIIAALYTGHGSGNTKLGIDLEEGACKDVSETKVWDLFATKLFALKYASDAACTVLRVDQIIMAKPAGGPRRDAAQAAGAGAEED
B2 was tested. Which binding [5] did it give?
Its binding is “binds”.

And the binding [6]?
Its binding is “binds”.

B3: GTP-binding translation factor At1g56070 (protein, UniProt Q9ASR1 1-843)
chain: MVKFTADELRRIMDYKHNIRNMSVIAHVDHGKSTLTDSLVAAAGIIAQEVAGDVRMTDTRADEAERGITIKSTGISLYYEMTDESLKSFTGARDGNEYLINLIDSPGHVDFSSEVTAALRITDGALVVVDCIEGVCVQTETVLRQALGERIRPVLTVNKMDRCFLELQVDGEEAYQTFSRVIENANVIMATYEDPLLGDVQVYPEKGTVAFSAGLHGWAFTLTNFAKMYASKFGVVESKMMERLWGENFFDPATRKWSGKNTGSPTCKRGFVQFCYEPIKQIIATCMNDQKDKLWPMLAKLGVSMKNDEKELMGKPLMKRVMQTWLPASTALLEMMIFHLPSPHTAQRYRVENLYEGPLDDQYANAIRNCDPNGPLMLYVSKMIPASDKGRFFAFGRVFAGKVSTGMKVRIMGPNYIPGEKKDLYTKSVQRTVIWMGKRQETVEDVPCGNTVAMVGLDQFITKNATLTNEKEVDAHPIRAMKFSVSPVVRVAVQCKVASDLPKLVEGLKRLAKSDPMVVCTMEESGEHIVAGAGELHLEICLKDLQDDFMGGAEIIKSDPVVSFRETVCDRSTRTVMSKSPNKHNRLYMEARPMEEGLAEAIDDGRIGPRDDPKIRSKILAEEFGWDKDLAKKIWAFGPETTGPNMVVDMCKGVQYLNEIKDSVVAGFQWASKEGPLAEENMRGICFEVCDVVLHSDAIHRGGGQVIPTARRVIYASQITAKPRLLEPVYMVEIQAPEGALGGIYSVLNQKRGHVFEEMQRPGTPLYNIKAYLPVVESFGFSSQLRAATSGQAFPQCVFDHWEMMSSDPLEPGTQASVLVADIRKRKGLKEAMTPLSEFEDKL
With B3 as the molecule, how does the binding [5] read?
Its binding is “binds”.

What about the binding [7] of the same molecule?
The binding was “binds”.

B4: carbonic anhydrase At5g14740 (enzyme, UniProt P42737 72-331)
chain: RMGNESYEDAIEALKKLLIEKDDLKDVAAAKVKKITAELQAASSSDSKSFDPVERIKEGFVTFKKEKYETNPALYGELAKGQSPKYMVFACSDSRVCPSHVLDFHPGDAFVVRNIANMVPPFDKVKYAGVGAAIEYAVLHLKVENIVVIGHSACGGIKGLMSFPLDGNNSTDFIEDWVKICLPAKSKVLAESESSAFEDQCGRCEREAVNVSLANLLTYPFVREGVVKGTLALKGGYYDFVNGSFELWELQFGISPVHSI
B4 was tested. Which binding [7] did it give?
The binding was “binds”.

B5: TREHALOSE PHOSPHATE SYNTHASE 8 (protein, UniProt Q0WUI9 1-856)
chain: MVSRSCANFLDLSSWDLLDFPQTPRTLPRVMTVPGIITDVDGDTTSEVTSTSGGSRERKIIVANMLPLQSKRDAETGKWCFNWDEDSLQLQLRDGFSSETEFLYVGSLNVDIETNEQEEVSQKLLEEFNCVATFLSQELQEMFYLGFCKHQLWPLFHYMLPMFPDHGDRFDRRLWQAYVSANKIFSDRVMEVINPEDDYVWIQDYHLMVLPTFLRKRFNRIKLGFFLHSPFPSSEIYRTLPVRDEILRGLLNCDLIGFHTFDYARHFLSCCSRMLGLDYESKRGHIGLDYFGRTVYIKILPVGVHMGRLESVLSLDSTAAKTKEIQEQFKGKKLVLGIDDMDIFKGISLKLIAMEHLFETYWHLKGKVVLVQIVNPARSSGKDVEEAKRETYETARRINERYGTSDYKPIVLIDRLVPRSEKTAYYAAADCCLVNAVRDGMNLVPYKYIVCRQGTRSNKAVVDSSPRTSTLVVSEFIGCSPSLSGAIRVNPWDVDAVAEAVNSALKMSETEKQLRHEKHYHYISTHDVGYWAKSFMQDLERACRDHYSKRCWGIGFGLGFRVLSLSPSFRKLSVEHIVPVYRKTQRRAIFLDYDGTLVPESSIVQDPSNEVVSVLKALCEDPNNTVFIVSGRGRESLSNWLSPCENLGIAAEHGYFIRWKSKDEWETCYSPTDTEWRSMVEPVMRSYMEATDGTSIEFKESALVWHHQDADPDFGSCQAKEMLDHLESVLANEPVVVKRGQHIVEVKPQGVSKGLAAEKVIREMVERGEPPEMVMCIGDDRSDEDMFESILSTVTNPELLVQPEVFACTVGRKPSKAKYFLDDEADVLKLLRGLGDSSSSLKPSSSHTQVAFESIV
How did the binding [7] turn out when B5 was run?
Its binding is “binds”.

B6: phosphofructokinase family protein At1g20950 (enzyme, UniProt Q9SYP2 1-614)
chain: MDSDFGIPRELSPLQQLRSQYKPELPPCLQGTTVRVELGDGTTVAEAADSHTMARAFPHTLGQPLAHFLRETAQVPDAHIITELPSVRVGIVFCGRQAPGGHNVIWGLFEALKVHNAKSTLLGFLGGSEGLFAQKTLEITDDILQTYKNQGGYDLLGRTKDQIKTTEQVNAALKACTDLKLDGLVIIGGVISNTDAAHLAEFFAAAKCSTKVVGVPVTTNGDLKNQFVEANVGFDTICKVNSQLISNACTDALSAEKYYYFIRLMGRKHSHVALECTLQSHPNMVILGEEVAASKLTIFDIAKQICDAVQARAVEDKNHGVILIPEGLIVSIPEVYALLKEIHGLLRQGVSADKISTQLSPWSSALFEFLPPFIKKQLLLHPESDDSAQLSQIETEKLLAYLVETEMNKRLKEGTYKGKKFNAICHFFGYQARGSLPSKFDCDYAYVLGHICYHILAAGLNGYMATVTNLKSPVNKWKCGATPITAMMTVKHWSQDASYTLTSIGRPAIHPAMVDLKGKAYDLLRQNAQKFLMEDLYRNPGPLQYDGPGADAKAVSLCVEDQDYMGRIKKLQEYLDQVRTIVKPGCSQDVLKAALSVMASVTDVLTTISSNGGQ
With B6 as the molecule, how does the binding [7] read?
Its binding is “binds”.

B7: methionine cycle protein At3g03780 (enzyme, UniProt Q9SRV5 1-765)
chain: MASHIVGYPRMGPKRELKFALESFWDGKSSADDLQKVSADLRSDIWKQMSAAGIKYIPSNTFSHYDQVLDTTAMLGAVPSRYGFTSGEIGLDVYFSMARGNASVPAMEMTKWFDTNYHYIVPELGPEVKFSYASHKAVNEYKEAKALGVETVPVLVGPVSYLLLSKLAKGVDKSFDLLSLLPKILPVYKEVIAELKAAGASWIQLDEPLFVMDLEGHKLQAFSGAYAELESTLSGLNVLVETYFADIPAEAYKTLTSLKGVTAFGFDLVRGTKTIDLIKSGFPQGKYLFAGVVDGRNIWANDLAASLITLQSLEGVVGKDKLVVSTSCSLLHTAVDLINETKLDAEIKSWLAFAAQKVVEVDALAKALAGQTNESFFTANADALSSRRSSPRVTNESVQKAAAALKGSDHRRTTEVSARLDAQQKKLNLPILPTTTIGSFPQTVELRRVRREYKAKKISEEDYVKAIKEEIKKVVDIQEDLDIDVLVHGEPERNDMVEYFGEQLSGFAFTANGWVQSYGSRCVKPPVIYGDVSRPKPMTVFWSSTAQSMTKRPMKGMLTGPVTILNWSFVRNDQPRHETCYQIALAIKDEVEDLEKGGIGVIQIDEAALREGLPLRKAEHSFYLDWAVHSFRITNCGVQDSTQIHTHMCYSNFNDIIHSIIDMDADVITIENSRSDEKLLSVFREGVKYGAGIGPGVYDIHSPRIPSTDEIADRINKMLAVLEQNILWVNPDCGLKTRKYTEVKPALKAMVDAAKLIRSQLGSAK
With B7 as the molecule, how does the binding [7] read?
Its binding is “binds”.

Where two headings read alike, the source gives them in different places. Results are given in words; binding and its absence hold for the method and conditions named. In cells and extracts the contact can be indirect. Here binding means that the protein was enriched with, or labelled near, the bait; the list need not be complete.
